69 compounds from the supplement of paper PMC4683952 can be followed below.

Some of the results follow. No stated cut-off is given here; in the data, active = 2 or more and inactive = the rest. Repeats in this data set agree poorly, so a single value says little.

The assay deals with Lgr5 (MarsCy1-Lgr5-EGFP, U2OS). The assay can be described thus: cell-surface Lgr5 expression (SCi1 fluorescence, background-subtracted) relative to WT DMSO (fold of DMSO control); higher = more Lgr5 at the plasma membrane. The settings on record: U2OS MarsCy1-Lgr5-EGFP stable; treatment time: overnight; library: ActiProbe-5K (TimTec); 25 µM.
Take `O=C(N/N=C/C=C/c1ccco1)c1cnccn1`: the “cell-surface Lgr5 expression” value is inactive: 1.02.

As to `CC1=CC(C)(C)NC(=S)N1c1ccc(C(C)C)cc1`, the “cell-surface Lgr5 expression” value was inactive: 0.929.

Turning to `O=[N+]([O-])c1ccc2c(c1)COc1ccccc1O2`, the “cell-surface Lgr5 expression” value is inactive: 0.986.

With `Cc1cc(C(=O)N/N=C\c2ccco2)c(C)o1`, the “cell-surface Lgr5 expression” value is inactive: 1.18.

As for `CC(=O)/N=C1\SCC(=O)N1c1nonc1NC(C)=O`, the “cell-surface Lgr5 expression” value is inactive: 0.902.

For `N#CC1=C(N)OC2=C(C(=O)CCC2)C1c1ccoc1` (centres undefined), the “cell-surface Lgr5 expression” value was inactive: 0.999.

For `CC1=NN(c2nnn[nH]2)C(=O)/C1=C\c1cccs1`, the “cell-surface Lgr5 expression” value is inactive: 1.05.

As to `NC(=O)c1nc(S)n(Cc2ccco2)c1N`, the “cell-surface Lgr5 expression” value is inactive: 1.26.

Consider `O=[N+]([O-])c1cccc(C2NNC(=S)S2)c1` (centres undefined), for which the “cell-surface Lgr5 expression” value was inactive: 1.02.

Turning to `CCOCc1cc(C)[nH]c(=O)c1C#N`, the “cell-surface Lgr5 expression” value was inactive: 1.13.

In the case of `Nc1nccc(-c2ccc(C(F)(F)F)cc2)n1`, the “cell-surface Lgr5 expression” value was inactive: 1.2.

As to `c1cc(C2=N[C@@H](c3ccncc3)[C@@H](c3ccncc3)N2)ccn1`, the “cell-surface Lgr5 expression” value was inactive: 0.804.

Turning to `O=[N+]([O-])c1ccc(Nc2cccc3ccccc23)c([N+](=O)[O-])c1`, the “cell-surface Lgr5 expression” value is inactive: 1.21.

For the compound `O=C1CCC=C1CSc1ccccc1`, the “cell-surface Lgr5 expression” value is inactive: 1.15.

Take `OCC(O)C(O)C(O)c1cnn(-c2ccccc2)n1` (centres undefined): the “cell-surface Lgr5 expression” value was inactive: 1.19.

Consider `O=S(=O)([O][Na])c1cc(O)c2cc(O)ccc2c1`, for which the “cell-surface Lgr5 expression” value is inactive: 1.43.

For `O=C(CCCCCCCC(=O)NNC(=O)c1cccs1)NNC(=O)c1cccs1`, the “cell-surface Lgr5 expression” value is inactive: 1.04.

For the compound `C(=N\Nc1nc(N2CCOCC2)nc(N2CCOCC2)n1)/c1ccccn1`, the “cell-surface Lgr5 expression” value is inactive: 0.939.

Take `CCN1CCN(c2cc3c(nn2)Oc2ccccc2N3C)CC1`: the “cell-surface Lgr5 expression” value is inactive: 1.39.

For `CC1=Nc2ccc(-c3ccccc3)cc2C1(C)C`, the “cell-surface Lgr5 expression” value is inactive: 0.934.

In the case of `CSc1ccc(/C=N\N2CCN(C3c4ccccc4-c4ccccc43)CC2)cc1`, the “cell-surface Lgr5 expression” value was inactive: 1.18.

Take `CN(C)C(=O)N1CCN(C(=O)N(C)C)CC1`: the “cell-surface Lgr5 expression” value is inactive: 0.995.

`O=C1NC(=S)S/C1=C/c1ccc(-c2ccc3c(c2)C(=O)NC3=O)o1`: the “cell-surface Lgr5 expression” value was inactive: 1.42.

Take `O=C(CCCC(=O)NC1CCCCC1)NC1CCCCC1`: the “cell-surface Lgr5 expression” value is inactive: 1.23.

Regarding `CCCNc1nc(N2CCCC2)nc(N2CCCC2)n1`, the “cell-surface Lgr5 expression” value was active: 2.05.

For `CCCCc1nn(-c2ccccc2)[n+](-c2ccccc2)n1.[Br-]`, the “cell-surface Lgr5 expression” value is inactive: 1.09.

With `CC1CCC2(CC1)C(C(=O)C13CC4CC(CC(C4)C1)C3)C2(C#N)C#N` (centres undefined), the “cell-surface Lgr5 expression” value was inactive: 1.09.

`CN1CCOC1c1cccc(Cl)c1` (centres undefined): the “cell-surface Lgr5 expression” value was inactive: 1.07.

Take `O=C(/C=C\c1ccco1)NCCCn1cc(Br)cn1`: the “cell-surface Lgr5 expression” value was inactive: 1.19.

Consider `N=c1c(C(N)=S)cnc2ccccn12`, for which the “cell-surface Lgr5 expression” value was inactive: 1.15.

Consider `S=C(c1ccncc1)N1CCOCC1`, for which the “cell-surface Lgr5 expression” value was inactive: 1.18.

Regarding `CC1(C)CC2(CCO1)OC(=O)CC2C(=O)O` (centres undefined), the “cell-surface Lgr5 expression” value was inactive: 1.26.

For `CCn1cc(Cl)c(C(=O)NC(Cn2cccn2)C(C)(C)C)n1` (centres undefined), the “cell-surface Lgr5 expression” value was inactive: 1.11.

Turning to `CC1CCCC(N2CCN(C(C)C)CC2)C1` (centres undefined), the “cell-surface Lgr5 expression” value was inactive: 1.28.

For the compound `Cc1cc2c(c(=O)[nH]1)C(=O)O/C2=C\c1c[nH]nc1-c1cccs1`, the “cell-surface Lgr5 expression” value was inactive: 1.17.

For `CC1=CN2C3=C(C(=O)CCC3)C3(OC2C=C1)C(=O)c1ccccc1C3=O` (centres undefined), the “cell-surface Lgr5 expression” value is inactive: 1.37.

For the compound `COc1ccc2c3c(ccc2c1)-c1[nH]c2ccccc2c1CC3`, the “cell-surface Lgr5 expression” value was inactive: 1.17.

As to `S=c1[nH]c2cc(Cl)ccc2o1`, the “cell-surface Lgr5 expression” value is inactive: 1.24.

Regarding `O=C1NN(c2ccccc2)C(=O)/C1=C/c1ccco1`, the “cell-surface Lgr5 expression” value was inactive: 1.05.

On to `c1ccc(-c2ccc3[nH]cnc3c2-c2ccccc2)cc1`, for which the “cell-surface Lgr5 expression” value was inactive: 1.23.

For `CC(=O)OCC1OC(n2cnc3c(=O)[nH]cnc32)C(OC(C)=O)C1OC(C)=O` (centres undefined), the “cell-surface Lgr5 expression” value is inactive: 1.12.

As to `O=S1(=O)N=C(NCCCN2CCOCC2)c2ccccc21`, the “cell-surface Lgr5 expression” value is inactive: 0.946.

Turning to `CC(=O)c1sc(N)nc1C`, the “cell-surface Lgr5 expression” value was inactive: 1.29.

`N/C(CSc1nc(-c2ccccc2)c(-c2ccccc2)o1)=N/O`: the “cell-surface Lgr5 expression” value is inactive: 0.804.

For `O=[N+]([O-])/C=C\c1cccs1`, the “cell-surface Lgr5 expression” value was inactive: 1.35.

In the case of `c1ccc2[nH]c(CSc3nnc4[nH]c5ccccc5n34)nc2c1`, the “cell-surface Lgr5 expression” value is inactive: 1.53.

Consider `O=[N+]([O-])c1ccc(/C=N\c2cc(Cl)cc(Cl)c2)s1`, for which the “cell-surface Lgr5 expression” value is active: 2.38.

Consider `C(C)(C)(C1=NC(CO1)[c@@]1ccccc1)C1=NC(CO1)[c@@]1ccccc1` (centres undefined), for which the “cell-surface Lgr5 expression” value was inactive: 1.16.

`CC(C)N1CC=C2C(C#N)=C(N)C(C#N)(C#N)[C@@H](c3ccsc3)[C@@H]2C1`: the “cell-surface Lgr5 expression” value was inactive: 0.971.

For `CC(C)COc1ccc2c(c1)c1c3n2CCNC3CCC1.Cl` (centres undefined), the “cell-surface Lgr5 expression” value was inactive: 1.37.

`O=[N+]([O-])/C(=C\Sc1ccccn1)c1ccccc1`: the “cell-surface Lgr5 expression” value was inactive: 1.01.

For `Cc1ccc(C2=NNC3(CCCCC3)S2)cc1`, the “cell-surface Lgr5 expression” value is inactive: 1.26.

As for `CCOC(=O)c1c(N)nc2n1CCC2`, the “cell-surface Lgr5 expression” value is inactive: 0.962.

`COCCNS(=O)(=O)c1cc(Cl)ccc1Cl`: the “cell-surface Lgr5 expression” value was inactive: 1.34.

Take `CN(Cc1cccs1)C(=S)SCCO`: the “cell-surface Lgr5 expression” value is inactive: 1.14.

Take `Cn1c2ccccc2n2nc3nc[nH]c(=O)c3c12`: the “cell-surface Lgr5 expression” value is inactive: 0.923.

For the compound `FC(F)(F)c1ccccc1CN1CCN(CC2CC3C=CC2C3)CC1` (centres undefined), the “cell-surface Lgr5 expression” value is inactive: 1.39.

As for `N#Cc1sc2nc3c(cc2c1N)CCC3`, the “cell-surface Lgr5 expression” value is inactive: 1.31.

In the case of `CCn1cc([N+](=O)[O-])c(-c2nc(-c3cccs3)no2)n1`, the “cell-surface Lgr5 expression” value was inactive: 1.17.

Turning to `CC1(C)CC(=O)C(C(C2=C(O)CC(C)(C)CC2=O)c2ccc(Br)s2)C(=O)C1` (centres undefined), the “cell-surface Lgr5 expression” value was inactive: 1.73.

For the compound `O=C(O)c1cc(C2CCCCC2)no1`, the “cell-surface Lgr5 expression” value was inactive: 1.1.

For `Nc1nc(SCc2ccc(F)cc2)ns1`, the “cell-surface Lgr5 expression” value is inactive: 1.24.

Take `CSc1nc2ccccc2c(=O)n1O`: the “cell-surface Lgr5 expression” value was inactive: 0.844.

For `COCc1[nH]nc2c1C1(CCN(C)CC1)C(C#N)=C(N)O2`, the “cell-surface Lgr5 expression” value was inactive: 1.15.

As to `c1ccc(Oc2ccc3c(c2)c2c4n3CCNC4CCC2)cc1` (centres undefined), the “cell-surface Lgr5 expression” value was inactive: 0.903.

`CNC(=S)NNC(=O)C12CC3CC(CC(C3)C1)C2`: the “cell-surface Lgr5 expression” value was inactive: 1.4.

Turning to `O=C(O)CCCN1C(=O)CSC1=S`, the “cell-surface Lgr5 expression” value is inactive: 1.36.

Regarding `O=[N+]([O-])c1cc(Oc2ccc3c(c2)CCC3)cc(-n2cnnn2)c1`, the “cell-surface Lgr5 expression” value is inactive: 1.07.

For `O=[N+]([O-])c1ccc(Nc2ccc(O)cc2)c([N+](=O)[O-])c1`, the “cell-surface Lgr5 expression” value is inactive: 0.886.
